The values below come from PubChem BioAssay AID1487 (National Center for Advancing Translational Sciences (NCATS), 2009).

The nature of the assay: qHTS Assay for Modulators of Lamin A Splicing. The conditions noted are these: HeLa LMNA splicing GFP/RFP minigene ratio, 48 h. Put shortly:
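S3 HeLa stable clones carrying a lamin A-EGFP splicing minigene plus DsRed2 were seeded at 600 cells/well in Opti-MEM with 2% FBS, pin-dosed and incubated 48 h at 37°C. Acumen cytometry (488 nm) gave the GFP/RFP total-intensity ratio.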
(In general: In qHTS, concentration-response curves come from the screen itself.)

Where [1] appears, read: measured here: RFP viability control channel.
Setting [2] is: measured here: GFP splicing reporter channel.

Some of the results follow. Shown are side measurements of this screen, not its main read-out; they come without a call. The list favours compounds with an active or inconclusive main result. Words in brackets tell the shape of the fitted curve; partial curves, single points and poor fits give uncertain potencies.

Take `COc1ccc(-c2nc3cc(NC(=O)COc4ccc(C)c(C)c4)ccc3o2)cc1`: under setting [1], the concentration at half-maximal activity (AC50) is 0.0891 µM [falling, full curve, poor fit].

`CCOc1cc(C(=O)OCC(=O)Nc2cc(C)on2)ccc1OCC(C)C`: the half-maximal activity concentration (AC50) under setting [2] was 35.5 µM [rising, partial curve, poor fit].

As to `CC(NC(=O)c1noc2c1CCCCC2)c1ccccc1` (configuration not stated), the AC50 was 11.2 µM [rising, single point] under setting [2] and 11.2 µM [rising, partial curve] under setting [1].

In the case of `CCCNc1ncnc2c1c(-c1ccccc1)cn2-c1ccccc1`, the concentration at half-maximal activity (AC50) under setting [2] was 35.5 µM [falling, single point].

For the compound `Cc1ccc(-n2nnnc2CCl)cc1`, the concentration at half-maximal activity (AC50) under setting [1] is 17.8 µM [falling, partial curve].

With `N#Cc1ccccc1NC(=S)Nc1ccc(F)cc1`, the concentration at half-maximal activity (AC50) under setting [1] was 22.4 µM [falling, partial curve, poor fit].

With `O=C(CN(Cc1ccc(Cl)c(Cl)c1)S(=O)(=O)c1ccccc1)N/N=C\c1ccc2c(c1)OCO2`, the AC50 by setting is: under setting [2], 7.94 µM [rising, partial curve, poor fit]; under setting [1], 15.8 µM [rising, partial curve].

Regarding `COCCn1c(C)cc(O)c(C(c2ccccc2Cl)N2CCCCC2)c1=O` (configuration not stated), the half-maximal activity concentration (AC50) under setting [2] is 6.31 µM [falling, single point] and the half-maximal activity concentration (AC50) under setting [1] was 3.98 µM [falling, single point].

In the case of `Cc1cc(O)cc(O)c1-c1onc(C(F)(F)F)c1-c1cscn1`, the AC50 under setting [2] is 4.47 µM [rising, full curve, poor fit] and the half-maximal activity concentration (AC50) under setting [1] is 10 µM [rising, partial curve].

With `O=C(Cc1coc2ccc3ccccc3c12)N1CCN(c2ncccn2)CC1`, the AC50 under setting [1] is 20 µM [rising, single point].

For the compound `COCCNC(=S)N(Cc1cccs1)Cc1cc2cccc(C)c2[nH]c1=O`, the half-maximal activity concentration (AC50) is, setting by setting: under setting [2], 0.02 µM [falling, full curve, poor fit]; under setting [1], 0.316 µM [falling, full curve].

As to `S=C(Nc1ccc2cn[nH]c2c1)Nc1ccccc1Cl`, the concentration at half-maximal activity (AC50) under setting [2] was 14.1 µM [rising, single point].

In the case of `Cc1ccc(OCC(=O)NNC(=S)NCc2ccccc2)cc1`, the AC50 under setting [2] is 15.8 µM [rising, single point].

Turning to `O=C1NC(=S)S/C1=C\c1ccc(SCc2ccccc2)o1`, the concentration at half-maximal activity (AC50) under setting [1] is 11.2 µM [rising, partial curve].

As to `C=CCNc1sc(C(=O)c2ccccc2)c(N)c1-c1nc2ccccc2s1`, the AC50 under setting [2] was 11.2 µM [rising, single point].

For the compound `CCOC(=O)c1c(C)n(C)c2ccc(OCC(O)Cn3nc(C)c(Br)c3C)cc12` (configuration not stated), the half-maximal activity concentration (AC50) is, setting by setting: under setting [2], 31.6 µM [rising, single point]; under setting [1], 20 µM [rising, single point].

The term AC50 denotes the midpoint of the concentration-response curve, whichever way the signal moves.
